Results published in the supplement of paper PMC7646827.
Structures can show the parent of a compound that is named as a salt. Single values are uncertain, as repeats are few or missing.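 All cells are established human bladder cancer lines, one derived from a patient-derived xenograft. A luminescent ATP assay measured viability as percent inhibition relative to vehicle across seven dilutions. The paper rates scores above 59 very active, 30–59 active, 21–29 semi-active, 9–20 low active, below 9 inactive.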

How the values were obtained:
Assay in all cases: drug sensitivity score DSS3 (score 0-100); higher = more sensitive; extreme values may be limits of the assay
Details in all cases: culture: 3D, ultra-low attachment; treatment time: 5 days
[1] = test system: UM-UC-9
[2] = test system: UM-UC-17
[3] = test system: UM-UC-3
[4] = test system: J82
[5] = test system: BC8149
[6] = test system: UM-UC-15
[7] = test system: SCaBER
[8] = test system: UM-UC-6
[9] = test system: UM-UC-18
[10] = test system: UM-UC-14
[11] = test system: TCCSUP
[12] = test system: 5637
[13] = test system: UM-UC-5
[14] = test system: UM-UC-12
[15] = test system: SW780
[16] = test system: T-24
[17] = test system: UM-UC-1

Compound	drug sensitivity score DSS3 [1]	drug sensitivity score DSS3 [2]	drug sensitivity score DSS3 [3]	drug sensitivity score DSS3 [4]	drug sensitivity score DSS3 [5]	drug sensitivity score DSS3 [6]	drug sensitivity score DSS3 [7]	drug sensitivity score DSS3 [8]	drug sensitivity score DSS3 [9]	drug sensitivity score DSS3 [10]	drug sensitivity score DSS3 [11]	drug sensitivity score DSS3 [12]	drug sensitivity score DSS3 [13]	drug sensitivity score DSS3 [14]	drug sensitivity score DSS3 [15]	drug sensitivity score DSS3 [16]	drug sensitivity score DSS3 [17]
CCc1c2c(nc3ccc(O)cc13)-c1cc3c(c(=O)n1C2)COC(=O)[C@]3(O)CC [SN-38] (max dose 10000 nM)	0.943	44.1	63.6	57.7	81.7	9.67	39.4	56.3	81.2	50.6	80.6	76.5	28.2	73.3	10.1	29.8	74.5
O=C(NC[C@H](O)CN1CCc2ccccc2C1)c1cc(NC2COC2)ncn1 (max dose 10000 nM)	0	0.0841	0.104	0	0	0	0	0	3.56	0.273	2.03	1.04	0	0	0	0	0
Nc1ncn([C@H]2C[C@H](O)[C@@H](CO)O2)c(=O)n1 [Decitabine] (max dose 10000 nM)	0	2.51	0	0.649	0	0	0	0	0	1.16	7.07	1.34	0	0	0	0.529	0.843
Nc1ccc(C(=O)Nc2cccc(-c3nc(N4CCOCC4)c4oc5ncccc5c4n3)c2)cn1 (max dose 10000 nM)	0	0	1.07	0	0.579	0	0	0	0	0.639	0	0.278	3.88	0	0	0	0.986
Cc1cc(O)c2c(c1)C(=O)c1cccc(O)c1C2=O [Chrysophanic Acid] (max dose 10000 nM)	0	0	2.15	0	0	0	0.0731	0	5.27	0	3.36	3.29	0	0.703	0	0	0.582
COC1CCN(C(=O)c2cc(Cc3n[nH]c(=O)c4ccccc34)ccc2F)CC1 [AZD2461] (max dose 10000 nM)	0	0	0	0	0	0	1.43	0.651	0	0.0326	2.46	0.272	0	0	0	0	0
O=C(O)c1nn(Cc2ccc(Cl)cc2Cl)c2ccccc12 [Lonidamine] (max dose 10000 nM)	0.846	0.425	4.52	0	5.92	0.00122	11.7	0	0.115	0	7.09	15.4	8.47	0	0	0	6.25
CCNC(=O)c1noc(-c2cc(C(C)C)c(O)cc2O)c1-c1ccc(CN2CCOCC2)cc1 [AUY922 (NVP-AUY922)] (max dose 10000 nM)	34.2	24.4	66.9	28.7	60.3	48	64.3	15.2	60.6	24.5	37.5	65.3	30.1	50.2	1.19	52.8	38.6
O=C1CC(c2c[nH]c3ccc(F)cc23)C(=O)N1 (stereo not given) (max dose 10000 nM)	0	0	0	0	0.16	0	0	0	0	0	0	0	0	0	0	0	0
Oc1ccc(Nc2nc(-c3ccc(Cl)cc3)cs2)cc1 [SKI II] (max dose 10000 nM)	0	0	0	0	0	0	0	0	0	0	0.204	0.274	0	0	0	0	0
c1ccc([C@@H]2C[C@H]2NC2CCNCC2)cc1 [GSK-LSD1 2HCl] (max dose 10000 nM)	0	0.0168	0	0	13.7	0	0	0.00154	0	0.648	1.67	0.0295	0	0.619	0	0	0
Nc1nc(NC2CC2)cc(-c2cccc(Cl)c2Cl)n1 [TH588] (max dose 10000 nM)	0	1.71	0	0	0.813	0	0.0563	0.462	0	1.51	1.04	0.771	0	0	0	0	0.784
C[C@]12CC[C@@H]3c4ccc(O)cc4CC[C@H]3[C@@H]1CC[C@@H]2O [Estradiol] (max dose 10000 nM)	0	0	0	0	0	0	0	0	0	0	0	0	0	0.154	0	0	0
Nc1ncn([C@@H]2O[C@H](CO)[C@@H](O)[C@H]2O)c(=O)n1 [Azacitidine] (max dose 10000 nM)	0	0	0	0	0.715	0	0	0.342	0	0.807	0	0	0	0	0	0	0
O=C1c2c(O)ccc(O)c2C(=O)c2c(NCCNCCO)ccc(NCCNCCO)c21 [Mitoxantrone HCl] (max dose 10000 nM)	2.1	17.7	15.8	0	32.2	0.0974	4.69	8.81	41.6	28.4	41.9	24.9	0.122	5.27	0.451	1.07	29.3
Cc1cc(C)c(S(=O)(=O)n2cc(C)cc2C)c(C)c1 [HJC0350] (max dose 10000 nM)	18.4	0	0	0	7.16	0	0	0	0.0695	0	0	0	0	0	0	0	0
CC(O)Cn1cnc2c1c(=O)n(C)c(=O)n2C (stereo not given) [Proxyphylline] (max dose 10000 nM)	0	0	0	0	0	0	0	0	0.168	0	0	0.0672	0	0	0	0	0
c1ccc2c(-c3cnn4cc(-c5ccc(N6CCNCC6)cc5)cnc34)ccnc2c1 (max dose 10000 nM)	0.163	0	0	0	0	0	0	0	0	0	0	0	0	0	0	1.56	0.103
CC(C)CC(=O)Nc1n[nH]c2c1CN(C(=O)C1CCN(C)CC1)C2(C)C (max dose 10000 nM)	0.645	3.19	0	0	0.326	2.95	2.12	11	6.75	1.23	3.29	8.14	0.113	1.08	1.08	1.37	0.186
C=CC(=O)N1CCC[C@@H](n2nc(-c3ccc(Oc4ccccc4)cc3)c3c(N)ncnc32)C1 (max dose 10000 nM)	0.463	0	6.74	0	0	0	5.47	0	10.3	1.34	1.27	2.5	0	5.24	0	0	0.158
Cc1cc2c(C(C)C)c(O)c(O)c(C=O)c2c(O)c1-c1c(C)cc2c(C(C)C)c(O)c(O)c(C=O)c2c1O [Gossypol] (max dose 10000 nM)	0	2.82	0.0228	0	1.42	0	5.28	0	1.67	0.298	11	6.65	0	0	0	0	1.28
C[C@@H](C(=O)Nc1ccc(Cl)cc1)C1CCC(c2ccnc3ccc(F)cc23)CC1 (stereo not given in full) (max dose 10000 nM)	0	0.000602	0	0	0	0	0	0	0	0	0	0	0.0365	0	0	0	0
Nc1nc(Cl)nc2c1ncn2[C@H]1C[C@H](O)[C@@H](CO)O1 [Cladribine] (max dose 10000 nM)	3.24	18.2	4.05	18.2	8.64	0	0.805	7.88	27.1	3.17	28.6	16.9	0	0.0566	0.591	1.6	10
CN(NC(=O)CC(=O)NN(C)C(=S)c1ccccc1)C(=S)c1ccccc1 [Elesclomol (STA-4783)] (max dose 10000 nM)	5.01	0.578	0	1.22	1.44	0	0	0	2.26	0	1.14	0.833	0	0	0	0.000754	0
CC(C)(C)C[C@@H]1N[C@@H](C(=O)N[C@H]2CC[C@H](O)CC2)[C@H](c2cccc(Cl)c2F)[C@]12C(=O)Nc1cc(Cl)ccc12 (max dose 10000 nM)	0	0	0.542	0	14.4	0	2.42	0.72	0.582	0.372	4.53	3.78	0	12.2	2.58	0.404	0.762

2 entries picked at random from the list so far:
Compound	drug sensitivity score DSS3 [1]	drug sensitivity score DSS3 [2]	drug sensitivity score DSS3 [3]	drug sensitivity score DSS3 [4]	drug sensitivity score DSS3 [5]	drug sensitivity score DSS3 [6]	drug sensitivity score DSS3 [7]	drug sensitivity score DSS3 [8]	drug sensitivity score DSS3 [9]	drug sensitivity score DSS3 [10]	drug sensitivity score DSS3 [11]	drug sensitivity score DSS3 [12]	drug sensitivity score DSS3 [13]	drug sensitivity score DSS3 [14]	drug sensitivity score DSS3 [15]	drug sensitivity score DSS3 [16]	drug sensitivity score DSS3 [17]
Cc1cc2c(C(C)C)c(O)c(O)c(C=O)c2c(O)c1-c1c(C)cc2c(C(C)C)c(O)c(O)c(C=O)c2c1O [Gossypol] (max dose 10000 nM)	0	2.82	0.0228	0	1.42	0	5.28	0	1.67	0.298	11	6.65	0	0	0	0	1.28
O=C1c2c(O)ccc(O)c2C(=O)c2c(NCCNCCO)ccc(NCCNCCO)c21 [Mitoxantrone HCl] (max dose 10000 nM)	2.1	17.7	15.8	0	32.2	0.0974	4.69	8.81	41.6	28.4	41.9	24.9	0.122	5.27	0.451	1.07	29.3
